These are yes or no findings as the source states them, for the method shown. A result given as binding can be weak or reduced; the word gives no strength.
Molecular target: ArqI in the yeast two-hybrid screen (Pseudomonas aeruginosa) (UniProt Q9I5L9)
Test: two-hybrid; yeast two-hybrid screen with ArqI against a random fragmented library of the PAO1 genome (Hybrigenics Services)

B1: PqsA fragment (residues 164-413), yeast two-hybrid clone (domain or fragment, UniProt Q9I4X3 164-413)
chain: TSGSTGAPKGVMHSLRNTLGFCRAFATELLALQAGDRLYSIPKMFFGYGMGNSLFFPWFSGASALLDDTWPSPERVLENLVAFRPRVLFGVPAIYASLRPQARELLSSVRLAFSAGSPLPRGEFEFWAAHGLEICDGIGATEVGHVFLANRPGQARADSTGLPLPGYECRLVDREGHTIEEAGRQGVLLVRGPGLSPGYWRASEEQQARFAGGWYRTGDLFERDESGAYRHCGREDDLFKVNGRWVVPTQ
binding: binds

— paper PMC12274486, “A glyoxal-specific aldehyde signaling axis in Pseudomonas aeruginosa that influences quorum sensing and infection” (Nature Communications, 2025)
